Assay results from PMC4559378.

Protein sequences, listed by entry. Tags and fused reporters are not part of them.
UniProt Q28009: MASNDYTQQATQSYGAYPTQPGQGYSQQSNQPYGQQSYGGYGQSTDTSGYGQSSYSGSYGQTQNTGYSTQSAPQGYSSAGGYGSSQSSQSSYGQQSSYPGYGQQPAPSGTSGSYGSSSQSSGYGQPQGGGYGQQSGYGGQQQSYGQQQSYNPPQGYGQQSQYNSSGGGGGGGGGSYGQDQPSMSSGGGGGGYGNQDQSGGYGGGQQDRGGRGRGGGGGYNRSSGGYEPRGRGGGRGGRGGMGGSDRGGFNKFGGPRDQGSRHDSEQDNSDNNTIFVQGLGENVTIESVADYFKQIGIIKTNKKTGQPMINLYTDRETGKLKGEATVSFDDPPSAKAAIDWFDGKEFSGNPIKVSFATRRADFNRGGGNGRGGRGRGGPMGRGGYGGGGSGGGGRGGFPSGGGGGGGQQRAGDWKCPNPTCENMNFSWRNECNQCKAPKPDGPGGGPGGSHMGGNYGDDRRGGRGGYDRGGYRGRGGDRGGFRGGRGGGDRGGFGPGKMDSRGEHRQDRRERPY

Molecular target: FUS (fused in sarcoma/translocated in liposarcoma), endogenous in bovine brain tissue (bovine (endogenous in bovine brain tissue)) (UniProt Q28009)
Experiment: affinity purification with mass spectrometry; immunopurification with a FUS-specific monoclonal antibody from bovine brain tissue, coupled to mass spectrometry

B1: HSP60, endogenous in bovine brain tissue (protein, UniProt P31081 27-573)
chain: AKDVKFGADARALMLQGVDLLADAVAVTMGPKGRTVIIEQSWGSPRVTKDGVTVAKSIDLKDKYKNIGAKLVQDVANNTNEEAGDGTTTATVLARSIAKEGFEKISKGANPVEIRRGVMLAVDAVIVELKKQSKPVTTPEEIAQVATISANGDKEIGNIISDAMKKVGRKGVITVKDGKTLNDELEIIEGMKFDRGYISPYFINTSKGQKCEFQDAYVLLSEKKISSVQSIVPALEIANAHRKPLVIIAEDVDGEALSTLVLNRLKVGLQVVAVKAPGFGDNRKNQLKDMAIATGGAVFGEEGLNLNLEDVQPHDLGKVGEVIVTKDDAMLLKGKGDKAQIEKRIQEIIEQLDITTSEYEKEKLNERLAKLSDGVAVLKVGGTSDVEVNEKKDRVTDALNATRAAVEEGIVLGGDCALLRCIPALESITPANEDQKTGIEIIKKTLKIPAMTIAKNAGVEGSLIVEKIMQSSSEVGYDAMLGDFVNMVEKGIIDPTKVVRTALLDAAGVASLLTTAEVVVTEIPKEEKDPGMGGMGGMGGGMGGGMF
B1 was tested, and the binding was “binds”.

No constants are given. Whether binding was seen depends on the method and setting. Binding seen in cells or lysates may run through a third protein. Here binding means that the protein was enriched with, or labelled near, the bait; the list need not be complete.
